In the supplement of paper PMC10849652:
This is one part of the list.

Sequences of proteins named here, by UniProt entry; tags and fusion partners are left off. A change or cut given only in a name is not applied to a line headed by its entry.
UniProt Q9NSC7: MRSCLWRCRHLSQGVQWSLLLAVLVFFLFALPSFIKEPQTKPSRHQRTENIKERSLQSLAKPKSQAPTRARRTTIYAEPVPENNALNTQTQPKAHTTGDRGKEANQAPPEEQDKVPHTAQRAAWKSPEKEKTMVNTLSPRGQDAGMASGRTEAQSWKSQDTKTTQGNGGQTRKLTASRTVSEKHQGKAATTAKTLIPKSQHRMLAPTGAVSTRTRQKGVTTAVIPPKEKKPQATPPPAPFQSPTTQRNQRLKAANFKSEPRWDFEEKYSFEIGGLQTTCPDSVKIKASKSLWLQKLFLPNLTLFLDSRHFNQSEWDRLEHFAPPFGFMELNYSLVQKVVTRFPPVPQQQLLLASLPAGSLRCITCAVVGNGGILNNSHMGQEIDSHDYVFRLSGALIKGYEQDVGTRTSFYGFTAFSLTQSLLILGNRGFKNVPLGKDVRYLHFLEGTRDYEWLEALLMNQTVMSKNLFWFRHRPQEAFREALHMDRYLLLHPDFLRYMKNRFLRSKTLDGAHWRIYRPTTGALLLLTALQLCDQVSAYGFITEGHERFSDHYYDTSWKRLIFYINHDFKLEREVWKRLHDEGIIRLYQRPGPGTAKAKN
UniProt Q8N9Q2: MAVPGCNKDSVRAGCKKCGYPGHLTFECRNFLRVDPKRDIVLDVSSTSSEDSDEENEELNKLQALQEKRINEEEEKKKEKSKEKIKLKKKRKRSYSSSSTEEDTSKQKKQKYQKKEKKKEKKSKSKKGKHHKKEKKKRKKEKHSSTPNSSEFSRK
UniProt O60225: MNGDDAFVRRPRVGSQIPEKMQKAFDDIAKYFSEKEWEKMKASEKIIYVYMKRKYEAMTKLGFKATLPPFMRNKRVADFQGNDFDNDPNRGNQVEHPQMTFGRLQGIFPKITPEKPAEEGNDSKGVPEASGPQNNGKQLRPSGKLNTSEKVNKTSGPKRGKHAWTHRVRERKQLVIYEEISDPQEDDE
UniProt Q86XZ4: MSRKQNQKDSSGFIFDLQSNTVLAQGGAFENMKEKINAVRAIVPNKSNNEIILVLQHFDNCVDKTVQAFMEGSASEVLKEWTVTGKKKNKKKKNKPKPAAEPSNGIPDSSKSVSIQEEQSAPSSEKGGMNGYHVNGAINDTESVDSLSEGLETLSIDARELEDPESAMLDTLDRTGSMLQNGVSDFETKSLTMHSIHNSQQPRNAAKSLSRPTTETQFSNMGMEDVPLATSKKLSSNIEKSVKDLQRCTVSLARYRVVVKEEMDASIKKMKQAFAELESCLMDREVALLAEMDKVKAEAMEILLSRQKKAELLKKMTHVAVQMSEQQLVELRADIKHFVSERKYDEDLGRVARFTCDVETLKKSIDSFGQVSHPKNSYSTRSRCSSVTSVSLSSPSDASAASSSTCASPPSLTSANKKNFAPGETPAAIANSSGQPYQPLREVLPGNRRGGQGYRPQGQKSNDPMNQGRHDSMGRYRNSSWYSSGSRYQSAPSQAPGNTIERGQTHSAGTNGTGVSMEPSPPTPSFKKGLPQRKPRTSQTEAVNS
UniProt P49675, whole entry, looked up: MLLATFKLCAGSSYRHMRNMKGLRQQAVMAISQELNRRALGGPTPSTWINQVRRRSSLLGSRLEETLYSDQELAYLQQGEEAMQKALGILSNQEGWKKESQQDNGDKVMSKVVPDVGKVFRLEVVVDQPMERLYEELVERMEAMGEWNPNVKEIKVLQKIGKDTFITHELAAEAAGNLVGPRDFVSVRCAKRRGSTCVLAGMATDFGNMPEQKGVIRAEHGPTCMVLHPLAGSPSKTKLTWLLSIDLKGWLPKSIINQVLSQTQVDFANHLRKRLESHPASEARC
UniProt Q5T280: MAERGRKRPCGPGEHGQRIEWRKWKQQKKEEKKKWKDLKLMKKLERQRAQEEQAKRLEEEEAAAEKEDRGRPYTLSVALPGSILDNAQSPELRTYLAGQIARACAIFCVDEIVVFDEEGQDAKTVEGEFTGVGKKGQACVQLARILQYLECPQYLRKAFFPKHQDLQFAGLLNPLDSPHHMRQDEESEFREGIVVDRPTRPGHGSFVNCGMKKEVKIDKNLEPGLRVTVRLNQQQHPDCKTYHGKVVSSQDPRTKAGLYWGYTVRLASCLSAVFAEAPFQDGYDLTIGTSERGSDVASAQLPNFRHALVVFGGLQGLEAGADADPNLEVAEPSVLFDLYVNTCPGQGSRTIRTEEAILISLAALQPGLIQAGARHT
UniProt P43308: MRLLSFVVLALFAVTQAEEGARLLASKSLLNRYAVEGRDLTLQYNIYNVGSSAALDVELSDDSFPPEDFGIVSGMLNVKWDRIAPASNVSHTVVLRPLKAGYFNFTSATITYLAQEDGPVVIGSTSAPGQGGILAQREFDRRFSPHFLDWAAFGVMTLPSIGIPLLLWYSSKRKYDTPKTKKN
UniProt O43278: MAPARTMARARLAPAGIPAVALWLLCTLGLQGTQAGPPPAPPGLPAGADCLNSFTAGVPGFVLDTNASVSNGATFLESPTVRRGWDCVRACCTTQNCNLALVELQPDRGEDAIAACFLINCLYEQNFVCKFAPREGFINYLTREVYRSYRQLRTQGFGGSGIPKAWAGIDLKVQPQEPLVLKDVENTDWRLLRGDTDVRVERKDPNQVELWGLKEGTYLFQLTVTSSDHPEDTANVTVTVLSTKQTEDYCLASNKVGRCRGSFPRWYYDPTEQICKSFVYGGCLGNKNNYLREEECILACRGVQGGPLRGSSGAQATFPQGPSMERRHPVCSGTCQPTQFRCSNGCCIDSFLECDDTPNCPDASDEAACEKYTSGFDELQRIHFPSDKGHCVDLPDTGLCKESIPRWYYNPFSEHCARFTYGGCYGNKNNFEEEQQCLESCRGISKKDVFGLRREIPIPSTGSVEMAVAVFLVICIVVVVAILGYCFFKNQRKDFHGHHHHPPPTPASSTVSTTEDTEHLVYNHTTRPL
UniProt Q9UH36: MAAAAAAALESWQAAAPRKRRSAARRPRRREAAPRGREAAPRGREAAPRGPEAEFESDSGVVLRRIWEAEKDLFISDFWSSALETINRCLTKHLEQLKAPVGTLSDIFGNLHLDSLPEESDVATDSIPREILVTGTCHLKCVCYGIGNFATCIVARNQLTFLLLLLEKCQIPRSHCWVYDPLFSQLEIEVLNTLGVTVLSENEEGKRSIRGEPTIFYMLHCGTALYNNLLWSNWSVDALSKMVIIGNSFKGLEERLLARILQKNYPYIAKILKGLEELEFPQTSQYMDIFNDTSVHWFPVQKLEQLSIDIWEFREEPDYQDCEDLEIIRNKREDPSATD
UniProt Q9H8P0: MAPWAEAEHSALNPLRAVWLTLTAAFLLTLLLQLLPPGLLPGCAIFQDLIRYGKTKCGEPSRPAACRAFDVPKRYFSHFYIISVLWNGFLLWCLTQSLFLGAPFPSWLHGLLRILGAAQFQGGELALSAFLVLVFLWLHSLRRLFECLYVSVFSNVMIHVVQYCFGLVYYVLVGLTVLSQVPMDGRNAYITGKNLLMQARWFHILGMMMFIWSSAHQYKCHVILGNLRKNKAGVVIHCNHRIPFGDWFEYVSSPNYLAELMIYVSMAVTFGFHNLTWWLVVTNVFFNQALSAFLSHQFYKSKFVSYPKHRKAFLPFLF
UniProt Q96DR4, whole entry, looked up: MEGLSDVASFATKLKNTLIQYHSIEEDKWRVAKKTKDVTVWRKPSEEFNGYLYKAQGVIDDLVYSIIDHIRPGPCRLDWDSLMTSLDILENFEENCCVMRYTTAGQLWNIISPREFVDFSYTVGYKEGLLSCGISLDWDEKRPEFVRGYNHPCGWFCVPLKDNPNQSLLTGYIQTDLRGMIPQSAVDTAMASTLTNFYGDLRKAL
UniProt Q56A73: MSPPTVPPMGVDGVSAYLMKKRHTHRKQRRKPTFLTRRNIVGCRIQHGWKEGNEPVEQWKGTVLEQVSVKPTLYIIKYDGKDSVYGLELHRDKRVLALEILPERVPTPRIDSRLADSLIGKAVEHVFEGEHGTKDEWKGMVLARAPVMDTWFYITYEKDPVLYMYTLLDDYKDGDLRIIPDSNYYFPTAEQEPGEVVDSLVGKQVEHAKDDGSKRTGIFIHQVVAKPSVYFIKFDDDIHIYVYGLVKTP
UniProt Q9ULZ2: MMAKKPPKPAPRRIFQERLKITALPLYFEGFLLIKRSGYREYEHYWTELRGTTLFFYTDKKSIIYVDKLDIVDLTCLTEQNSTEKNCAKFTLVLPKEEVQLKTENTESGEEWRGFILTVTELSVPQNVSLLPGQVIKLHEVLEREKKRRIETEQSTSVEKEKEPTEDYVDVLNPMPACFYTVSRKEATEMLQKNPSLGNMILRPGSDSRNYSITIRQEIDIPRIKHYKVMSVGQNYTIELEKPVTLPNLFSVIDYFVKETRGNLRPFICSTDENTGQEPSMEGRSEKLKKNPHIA
UniProt P36956: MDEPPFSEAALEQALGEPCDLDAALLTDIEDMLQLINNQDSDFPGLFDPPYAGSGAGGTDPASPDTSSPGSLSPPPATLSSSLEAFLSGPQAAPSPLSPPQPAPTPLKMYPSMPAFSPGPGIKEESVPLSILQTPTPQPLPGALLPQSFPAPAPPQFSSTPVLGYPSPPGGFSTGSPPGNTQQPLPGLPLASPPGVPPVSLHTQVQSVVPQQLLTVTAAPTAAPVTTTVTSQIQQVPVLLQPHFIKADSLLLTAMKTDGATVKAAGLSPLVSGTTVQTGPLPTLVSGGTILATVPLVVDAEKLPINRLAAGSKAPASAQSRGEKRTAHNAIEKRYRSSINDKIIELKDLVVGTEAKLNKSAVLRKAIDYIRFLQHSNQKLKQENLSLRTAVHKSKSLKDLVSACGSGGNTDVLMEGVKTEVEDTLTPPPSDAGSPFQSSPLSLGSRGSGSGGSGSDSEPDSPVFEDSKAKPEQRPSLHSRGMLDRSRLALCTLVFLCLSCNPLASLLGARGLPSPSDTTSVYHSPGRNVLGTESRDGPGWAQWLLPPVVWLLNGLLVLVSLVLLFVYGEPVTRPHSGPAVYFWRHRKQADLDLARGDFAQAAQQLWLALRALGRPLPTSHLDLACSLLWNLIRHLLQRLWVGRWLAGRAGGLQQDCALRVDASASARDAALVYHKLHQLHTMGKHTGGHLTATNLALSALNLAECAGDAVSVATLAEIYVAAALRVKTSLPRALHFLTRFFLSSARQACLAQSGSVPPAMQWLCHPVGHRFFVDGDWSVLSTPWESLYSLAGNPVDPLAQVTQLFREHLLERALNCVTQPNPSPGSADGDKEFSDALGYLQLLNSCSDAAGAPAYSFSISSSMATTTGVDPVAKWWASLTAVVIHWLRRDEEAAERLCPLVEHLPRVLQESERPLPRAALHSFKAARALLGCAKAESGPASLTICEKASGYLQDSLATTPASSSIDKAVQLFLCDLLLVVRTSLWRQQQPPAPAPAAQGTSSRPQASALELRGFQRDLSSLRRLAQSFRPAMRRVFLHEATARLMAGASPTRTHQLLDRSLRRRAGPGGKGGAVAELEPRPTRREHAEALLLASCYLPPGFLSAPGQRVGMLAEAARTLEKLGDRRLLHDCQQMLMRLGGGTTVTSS
UniProt Q8IZP2: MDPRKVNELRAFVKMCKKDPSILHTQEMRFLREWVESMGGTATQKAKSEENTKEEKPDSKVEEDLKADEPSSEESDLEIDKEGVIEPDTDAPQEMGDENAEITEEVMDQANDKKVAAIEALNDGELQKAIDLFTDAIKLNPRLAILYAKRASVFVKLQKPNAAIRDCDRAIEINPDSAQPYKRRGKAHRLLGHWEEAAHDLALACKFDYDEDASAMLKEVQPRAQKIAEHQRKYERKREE
UniProt Q658P3: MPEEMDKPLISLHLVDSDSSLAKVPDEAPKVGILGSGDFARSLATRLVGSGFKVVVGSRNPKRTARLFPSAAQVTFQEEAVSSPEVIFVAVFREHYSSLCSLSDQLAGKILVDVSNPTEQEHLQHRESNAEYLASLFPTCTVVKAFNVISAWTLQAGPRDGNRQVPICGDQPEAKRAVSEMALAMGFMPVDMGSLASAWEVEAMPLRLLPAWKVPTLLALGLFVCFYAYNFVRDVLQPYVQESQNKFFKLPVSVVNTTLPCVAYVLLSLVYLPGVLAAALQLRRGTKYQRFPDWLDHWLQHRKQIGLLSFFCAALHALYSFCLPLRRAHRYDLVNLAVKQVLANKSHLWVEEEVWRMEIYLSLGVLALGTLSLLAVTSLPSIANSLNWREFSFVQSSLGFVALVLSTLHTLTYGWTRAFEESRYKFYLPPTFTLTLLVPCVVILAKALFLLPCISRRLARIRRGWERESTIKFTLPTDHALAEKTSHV
UniProt Q9Y6N5: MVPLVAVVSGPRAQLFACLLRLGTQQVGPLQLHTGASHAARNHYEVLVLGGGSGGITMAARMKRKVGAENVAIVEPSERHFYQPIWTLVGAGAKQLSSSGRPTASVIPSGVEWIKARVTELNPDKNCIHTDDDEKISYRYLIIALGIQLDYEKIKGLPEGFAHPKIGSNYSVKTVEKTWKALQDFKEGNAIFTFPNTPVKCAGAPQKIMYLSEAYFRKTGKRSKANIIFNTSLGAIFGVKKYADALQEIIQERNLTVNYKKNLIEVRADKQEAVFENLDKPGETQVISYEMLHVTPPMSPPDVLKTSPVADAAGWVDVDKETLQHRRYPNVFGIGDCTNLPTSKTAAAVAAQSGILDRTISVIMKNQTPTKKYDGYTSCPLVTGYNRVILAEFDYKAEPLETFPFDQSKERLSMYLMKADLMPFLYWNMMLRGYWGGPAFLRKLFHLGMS

How the values were obtained:
Test in all cases: log2 fold change, soluble protein after heating vs DMSO (PISA); higher = thermal stabilisation; K562 lysate, 10 uM; active = over 0.2 and 3.5 SD of the protein, either way, in both replicates (recomputed)
alvocidib = compound: CN1CC[C@H](c2c(O)cc(O)c3c(=O)cc(-c4ccccc4Cl)oc23)[C@H](O)C1 [alvocidib]
Summary of the method: (§1)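 Following dounce homogenisation of K562 pellets in PBS pH 7.4 with 1 mM MgCl2, crude extract at 1 mg/mL protein was incubated for 30 min with 10 μM compound. Aliquots were then heated for 3 min over 48°C-58°C and pooled, NP-40 was added to 0.5% at 4°C, and soluble protein was recovered as the supernatant at 21,000xg for 90 min. Channel-sum-equalised TMTpro 16plex LC-MS/MS quantified this protein. Each value, from duplicates, is a log-two fold change in thermal stability relative to solvent controls.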

Tubastatin A = compound: CN1CCc2c(c3ccccc3n2Cc2ccc(C(=O)NO)cc2)C1 [Tubastatin A]
Summary of the method: as §1

[1] = compound: CNC(=O)C1=CC=CC=C1NC2=NC(=NC=C2Cl)NC3=C(C=C(C=C3)N4CCOCC4)OC
Summary of the method: as §1

defactinib = compound: CNC(=O)c1ccc(Nc2ncc(C(F)(F)F)c(NCc3nccnc3N(C)S(C)(=O)=O)n2)cc1 [defactinib]
Summary of the method: as §1

[2] = compound: CNc1nc(-c2ccc3c(N)n[nH]c3c2)cc(N2C[C@@H](C(=O)NC3CCCCC3)CC[C@H]2C)n1
Summary of the method: as §1

encorafenib = compound: COC(=O)N[C@@H](C)CNc1nccc(-c2cn(C(C)C)nc2-c2cc(Cl)cc(NS(C)(=O)=O)c2F)n1 [encorafenib]
Summary of the method: as §1

[3] = compound: COC(=O)[C@H](CCSC)NC(=O)C1=C(C=C(C=C1)NC[C@H](CS)N)C2=CC=CC=C2
Summary of the method: as §1

alisertib = compound: COc1cc(Nc2ncc3c(n2)-c2ccc(Cl)cc2C(c2c(F)cccc2OC)=NC3)ccc1C(=O)O [alisertib]
Summary of the method: as §1

[4] = compound: COc1cc2nc(-c3cc(F)ccc3O)nc(N[C@@H]3CNC[C@H]3C(C)(C)O)c2cc1OC
Summary of the method: as §1

gefitinib = compound: COc1cc2ncnc(Nc3ccc(F)c(Cl)c3)c2cc1OCCCN1CCOCC1 [gefitinib]
Summary of the method: as §1

Measured: log2 fold change

SRP72 (UniProt O76094)
inactive: alvocidib 0 | Tubastatin A -0.047 | [1] 0.009 | defactinib 0.043 | [2] 0.016 | encorafenib 0.033 | [3] 0.041 | alisertib -0.001 | [4] 0.045 | gefitinib -0.024

ST6GALNAC1 (UniProt Q9NSC7)
inactive: alvocidib 0.02 | Tubastatin A -0.038 | [1] -0.113 | defactinib 0.117 | [2] 0.011 | encorafenib -0.023 | [3] 0.017 | alisertib -0.029 | gefitinib 0.063

SREK1IP1 (UniProt Q8N9Q2)
inactive: alvocidib 0.079 | Tubastatin A -0.063 | [1] 0.047 | encorafenib 0.127 | [3] -0.121 | alisertib -0.012 | [4] 0.039 | gefitinib -0.037

SPTA1 (UniProt P02549)
inactive: alvocidib 0.013 | Tubastatin A -0.052 | [1] 0 | defactinib 0.002 | [2] -0.037 | encorafenib 0.009 | [3] 0.037 | alisertib 0.006 | [4] -0.01 | gefitinib 0.005

SRP14 (UniProt H0YLW0)
inactive: alvocidib -0.054 | Tubastatin A 0.376 | [1] 0.103 | [2] 1.02 | [4] 0.182

SSX5 isoform 2 (UniProt O60225)
inactive: alvocidib -0.096 | Tubastatin A -0.015 | [1] 0.038 | defactinib -0.026 | encorafenib -0.082 | [3] -0.271 | alisertib -0.172 | [4] -0.002 | gefitinib 0.005

SSH2 (UniProt Q76I76)
inactive: alvocidib -0.081 | Tubastatin A 0.034 | [1] 0.029 | defactinib -0.002 | [2] 0.061 | encorafenib 0.266 | [3] 0.307 | [4] 0.025

SPATS2 (UniProt Q86XZ4)
inactive: alvocidib 0.039 | Tubastatin A -0.075 | [1] 0.019 | defactinib 0.353 | [2] 0.036 | encorafenib 0.066 | [3] -0.195 | alisertib -0.015 | [4] -0.047 | gefitinib 0

SPATS2L isoform 2 (UniProt Q9NUQ6)
inactive: alvocidib 0.146 | Tubastatin A -0.039 | [1] -0.015 | defactinib 0.075 | encorafenib 0.075 | [3] -0.017 | alisertib -0.007 | [4] -0.018 | gefitinib 0.096

STAR (UniProt P49675)
inactive: alvocidib -0.024 | [1] 0.073 | defactinib 0.034 | [2] 0.005 | encorafenib -0.052 | [3] 0.063 | alisertib 0.133 | gefitinib -0.056
active: Tubastatin A 0.448

SPRY2 (UniProt O43597)
inactive: [1] 0.082

SPICE1 (UniProt Q8N0Z3)
inactive: [1] -0.013 | defactinib -0.002 | encorafenib 0.064 | [3] 0.153 | alisertib -0.376 | gefitinib 0.102

SPOUT1 (UniProt Q5T280)
inactive: Tubastatin A -0.152 | [1] -0.037 | defactinib -0.154 | [2] 0.019 | encorafenib 0.054 | [3] 0.164 | alisertib 0.028 | [4] -0.024 | gefitinib 0.038

SPRR2B (UniProt P35325)
inactive: alvocidib 0.085 | Tubastatin A 0.1 | [1] -0.05 | encorafenib 0.076 | [3] -0.15 | [4] -0.103

SSR2 (UniProt P43308)
inactive: Tubastatin A -0.028

SPINT1 (UniProt O43278)
inactive: alvocidib 0.02 | [1] -0.005 | alisertib -0.007 | [4] -0.003 | gefitinib 0.058

SRRD (UniProt Q9UH36)
inactive: alvocidib -0.039 | Tubastatin A 0.123 | [2] 0.091

SRD5A3 (UniProt Q9H8P0)
inactive: Tubastatin A -0.245 | [1] -0.115 | defactinib -0.043 | [2] -0.208 | encorafenib 0.041 | [3] -0.506 | alisertib 0.209 | [4] -0.077 | gefitinib -0.098

STARD4 (UniProt Q96DR4)
inactive: alvocidib 0.03 | encorafenib -0.089 | [3] 0.027

SPTAN1 isoform 3 (UniProt Q13813)
inactive: defactinib 0.001 | encorafenib 0.002 | [3] -0.146

SPIN4 (UniProt Q56A73)
inactive: alvocidib 0.174 | defactinib -0.097

Reprinted at random: two records from the list
SRRD (UniProt Q9UH36)
inactive: alvocidib -0.039 | Tubastatin A 0.123 | [2] 0.091

STARD4 (UniProt Q96DR4)
inactive: alvocidib 0.03 | encorafenib -0.089 | [3] 0.027

The list continues.

STAT1 isoform 2 (UniProt P42224)
inactive: alisertib -0.029 | gefitinib -0.117

SSBP4 (UniProt Q9BWG4)
inactive: alvocidib -0.063 | defactinib 0.003 | encorafenib 0.161 | [3] -0.075 | alisertib 0.032 | [4] 0.082 | gefitinib -0.049

STAP1 (UniProt Q9ULZ2)
inactive: [1] 0.102 | [2] -0.069 | alisertib -0.134 | gefitinib 0.27

SPP2 (UniProt Q13103)
inactive: alvocidib 0.02 | [4] 0.037

STARD8 isoform 2 (UniProt Q92502)
inactive: Tubastatin A -0.146 | [2] -0.126 | encorafenib 0.065 | [3] -0.048

SPRED2 (UniProt Q7Z698)
inactive: alisertib -0.012 | gefitinib 0.049

SSX2IP (UniProt Q9Y2D8)
inactive: alvocidib -0.184 | Tubastatin A -0.222 | defactinib 0.085 | encorafenib 0.143 | [3] 0.138 | alisertib -0.067 | gefitinib 0.067

SS18L1 (UniProt O75177)
inactive: alvocidib -0.038 | Tubastatin A 0.055 | [1] 0.11 | alisertib -0.154 | gefitinib -0.062

SREBF1 isoform 4 (UniProt P36956)
inactive: Tubastatin A 0.027 | [1] -0.097 | [2] 0.035 | [4] 0.195

ST3GAL1 (UniProt Q11201)
inactive: [2] 0.175

SPATA33 isoform 2 (UniProt Q96N06)
inactive: alvocidib 0 | Tubastatin A 0.014 | defactinib 0.171 | [2] 0.118 | encorafenib -0.021 | [3] -0.041 | alisertib 0.097 | [4] 0.061 | gefitinib 0.024

SSBP4 (UniProt U3KPY3)
inactive: alvocidib -0.103 | defactinib -0.127 | alisertib 0.122 | gefitinib -0.294

ST13P4 (UniProt Q8IZP2)
inactive: Tubastatin A -0.053 | [1] -0.136 | defactinib 0.12

STAM (UniProt A6NMU3)
inactive: Tubastatin A 0.032 | [1] 0.09 | defactinib -0.017 | [2] 0.149 | encorafenib -0.107 | [3] 0.049 | [4] 0.088

STAB1 (UniProt Q9NY15)
inactive: Tubastatin A 0.1 | [1] -0.113 | [4] -0.077

STEAP3 isoform 2 (UniProt Q658P3)
inactive: alvocidib -0.027 | Tubastatin A -0.061 | defactinib 0.045 | [2] -0.082 | encorafenib -0.016 | [3] 0.018 | alisertib -0.047 | [4] -0.003 | gefitinib 0.051

SPRTN (UniProt Q9H040)
inactive: Tubastatin A 0.052 | defactinib 0.236 | [2] -0.034 | encorafenib 0.011 | [3] -0.231

SPATA7 (UniProt Q9P0W8)
inactive: alvocidib -0.406 | [1] 0.067 | defactinib -0.056 | encorafenib -0.088 | [3] -0.021 | alisertib -0.045 | [4] 0.079 | gefitinib 0.026

SPTBN1 isoform 3 (UniProt Q01082)
inactive: Tubastatin A 0.021 | [1] 0.046 | [2] -0.145 | encorafenib 0.107 | [3] 0.048 | alisertib 0.203 | [4] 0.093 | gefitinib -0.015

STAU1 isoform 3 (UniProt O95793)
inactive: alvocidib -0.06 | [1] -0.044 | alisertib -0.068 | gefitinib 0.03

SQOR (UniProt Q9Y6N5)
inactive: Tubastatin A 0.065 | [1] -0.103 | [2] 0.03 | encorafenib 0.023 | [3] 0.08 | [4] -0.11

SPC24 (UniProt K7ESQ2)
inactive: alvocidib 0.009 | encorafenib 0.05 | [3] -0.028
